Percent effect of library compounds

By UniProt entry, the sequences of proteins in these tests, tags left out. Residues count along the entry.
UniProt P9WNZ1, whole entry: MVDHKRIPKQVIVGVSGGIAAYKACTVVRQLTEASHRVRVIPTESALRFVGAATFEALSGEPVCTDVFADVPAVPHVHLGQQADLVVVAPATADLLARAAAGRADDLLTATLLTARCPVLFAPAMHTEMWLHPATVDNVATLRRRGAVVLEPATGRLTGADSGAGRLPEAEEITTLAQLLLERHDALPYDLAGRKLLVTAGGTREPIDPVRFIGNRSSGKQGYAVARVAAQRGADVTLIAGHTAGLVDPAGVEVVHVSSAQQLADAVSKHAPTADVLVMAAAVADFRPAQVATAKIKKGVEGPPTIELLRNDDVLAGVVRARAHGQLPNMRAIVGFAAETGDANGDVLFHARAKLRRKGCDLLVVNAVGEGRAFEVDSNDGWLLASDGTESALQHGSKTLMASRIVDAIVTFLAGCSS
UniProt A4I591, 1-473: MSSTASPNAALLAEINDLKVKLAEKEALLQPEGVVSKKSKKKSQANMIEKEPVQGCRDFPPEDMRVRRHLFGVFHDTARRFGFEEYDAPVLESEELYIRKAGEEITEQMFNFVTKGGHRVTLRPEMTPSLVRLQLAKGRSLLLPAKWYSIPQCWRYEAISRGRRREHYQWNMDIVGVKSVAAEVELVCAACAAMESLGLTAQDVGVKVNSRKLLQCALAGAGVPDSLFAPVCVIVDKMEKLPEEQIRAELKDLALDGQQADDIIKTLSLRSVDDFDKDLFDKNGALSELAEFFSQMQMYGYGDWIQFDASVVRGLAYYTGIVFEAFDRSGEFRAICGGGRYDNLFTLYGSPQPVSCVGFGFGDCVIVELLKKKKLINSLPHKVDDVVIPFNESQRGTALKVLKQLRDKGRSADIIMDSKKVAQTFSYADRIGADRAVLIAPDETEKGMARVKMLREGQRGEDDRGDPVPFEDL

CoaBC: 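Coenzyme A biosynthesis protein CoaBC, Mycobacterium tuberculosis (UniProt P9WNZ1). Enzyme assay of CoaBC with a phosphate dye (Biomol Green) read at 650 nm. Compounds at 30 µM. Higher reads as stronger inhibition, judged from the few compounds that gave an IC50. Most strong results did not repeat in a second test. About 67,000 compounds were tested under these conditions; 0.06% (about 40) showed 50% or more at least once.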
LiHisRS: 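Enzyme assay of histidyl-tRNA synthetase; the read-out is not stated. Target: Histidine-tRNA ligase, Leishmania infantum (UniProt A4I591). Tested at 30 µM. Direction is inferred from retests: higher values go with stronger inhibition. The assay is labelled LdHisRS but filed under L. infantum. About 69,000 compounds were tested under these conditions; 0.6% (about 410) showed 50% or more at least once.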
Leishmania in macrophages: 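Cell assay of Leishmania donovani living inside macrophages; the read-out is not stated. Compounds at 30 µM. The record gives no direction; compounds that gave an IC50 in retests scored well above the rest, so higher reads as stronger inhibition. About 69,000 compounds were tested under these conditions; 1.5% (about 1,000) showed 50% or more at least once.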

Values are the deposited “Percent Effect”, in %. The controls that fix the scale are not given in the record; negative values are as filed. The compounds are a random part of those screened. A dash means the value is not listed here; it may have been measured.

| SMILES | CoaBC | LiHisRS | Leishmania in macrophages |
|---|---|---|---|
| `[H][C@@]12CS(=O)(=O)C[C@]1([H])N(S(=O)(=O)c1cn(C)cn1)CCN2CC=C(C)C` | - | - | -73.81 |
| `Cc1cc(C(=O)NCC2(C(N)=O)CCOCC2)nn1C(C)(C)C` | -1.229 | 12.9 | -8.869 |
| `Cc1occc1CNC(=O)NCCN(C)C1CCCC1` | -4.54 | 2.632 | 20.19 |
| `Cc1cccc(OC2CCN(C(=O)c3ccc4c(c3)OCO4)CC2)n1` | 4.598 | 23.38 | -68.67 |
| `CN(Cc1cccc(C(F)(F)F)c1)Cc1nc(-c2cnccn2)no1` | 5.556 | 6.452 | 10.85 |
| `CCc1nc(CN2CCCN(C(=O)CC3CCCC3)CC2)cs1` | -22.11 | 16.98 | 17.47 |
| `Cc1nccn1CC1CCCN1S(=O)(=O)Cc1ccccc1F` (stereo not shown) | 2.057 | -30.34 | 17.08 |
| `c1cc(-c2nnc3sc(CCN4CCCC4)nn23)ccn1` | 4.6 | 47.83 | 36.69 |
| `[H][C@@]12CCN(C(=O)c3ccoc3)C[C@@]1([H])O[C@H](c1ccncn1)C2` | - | - | 19.31 |
| `CO[C@H]1CN(Cc2ccccc2F)[C@@H]2CCCO[C@H]12` | -0.1631 | 12.33 | - |
| `Cc1nnc(NCc2ccc(F)cc2)o1` | 2.114 | 24.37 | 10.55 |
| `O=C(Cn1cnc2ccsc2c1=O)NCCCc1nnc2ccccn12` | 1.392 | 15 | 13.63 |
| `CNC(=O)CN1CC[C@H]2CN(C(=O)c3ccccc3C)C[C@H]2C1` | -3.457 | 6.944 | - |
| `CC(=O)N1CCC2(CC1)CC(Oc1ccccc1)CO2` (stereo not shown) | 11.4 | 13.33 | 7.601 |
| `Cc1ccc(NCc2ccco2)cc1N1CCOC1=O` | -0.4032 | 7.018 | 19.12 |
| `COC(=O)c1cccc(S(=O)(=O)Nc2ncc(C)s2)c1` | - | 26.76 | 15.65 |
| `O=C(NC[C@@H]1C[C@@H]2CN(C(=O)CO)C[C@H]2O1)c1ccsc1` | -3.218 | -2.703 | - |
| `CC(Cn1cccn1)NC(=O)c1cc(C2CC2)nc2c1cnn2C` (stereo not shown) | 1.01 | 8.602 | -24.88 |
| `Cn1ccc(C2CCCCN2C(=O)c2cccc(Cn3cccn3)c2)n1` (stereo not shown) | 9.504 | 9.333 | 0.4888 |
| `CCCOCC(=O)N1CCc2nc(NC)nc(C(=O)N3CCCC3)c2C1` | 15.67 | 18.09 | 1.497 |
| `CC(C)(NCC(=O)NCC1CC1)c1ccc2c(c1)OCCO2` | 12.28 | -3.571 | 19.98 |
| `COCCn1cc2c(n1)C(CNCc1nccs1)OCC2` (stereo not shown) | -4.444 | 9.722 | - |
| `CCn1ccnc1CN(C)C(=O)Cn1ccc2ccccc2c1=O` | 15.44 | 14.94 | 11.98 |
| `O=C(NCc1ccccn1)[C@H]1COC[C@H]2CN(Cc3ccoc3)C[C@H]21` | 4.37 | 7.519 | - |
| `CCCc1cc(=O)[nH]c(-c2ccccc2CN(C)CCn2cccn2)n1` | -6.157 | 2.655 | 35.91 |
| `CCc1ccc(CN(C)Cc2nc(-c3cnccn3)no2)nc1` | -4.321 | 3.226 | 13.23 |
| `O=C(CN1CCCCC1)Nc1ncc(Br)cc1Br` | -1.595 | 12.37 | 11.56 |
| `CCN(CCO)C(=O)Nc1ccc(OCCOC)nc1` | 0.4969 | 4.762 | 14.88 |
| `CCOCCS(=O)(=O)Cc1ccn(-c2cccc(F)c2)n1` | 6.962 | -1.299 | 21.97 |
| `CC(C)c1ncncc1C(=O)NCCN1CCOCC1` | 3.33 | 10.62 | -51.02 |
| `CCCn1nccc1-c1nccnc1CC1CCN(C(C)=O)CC1` | -0.7282 | 21.43 | -24.99 |
| `CN(Cc1ccc(C2CC(=O)Nc3cc4[nH]ncc4cc32)o1)S(C)(=O)=O` (stereo not shown) | 6.198 | 14.67 | 25.53 |
| `CCn1cnnc1CNC(=O)N1CCN(c2cccs2)CC1` | 1.928 | 38.36 | -4.525 |
| `Cc1n[nH]c(C)c1S(=O)(=O)N1CCC(Oc2cnccn2)CC1` | 0.4751 | 11.27 | 18.8 |
| `O=C(COCC(F)(F)C(F)F)N1CCC(c2ncc[nH]2)CC1` | -5.645 | 10.53 | 23.12 |
| `O=C(C1=CCCC1)N1CCC[C@]2(C[C@@H](OCc3ccccn3)CO2)C1.O=C(O)C(F)(F)F` | - | - | 20.02 |
| `Cn1cccc1C(=O)N1CCc2ccc(=O)n(C)c2CC1` | -5.185 | 18.06 | 0.3009 |
| `CC(=O)N1CCCn2nc(CNC(=O)N3CCCCC3)cc2C1` | 0.2554 | -2.597 | -9.362 |
| `COCC(=O)N1CCC(c2cc3ncccc3c(O)n2)CC1` | -0.3708 | 3.448 | 13.31 |

2 of the entries, repeated:

For [H][C@@]12CS(=O)(=O)C[C@]1([H])N(S(=O)(=O)c1cn(C)cn1)CCN2CC=C(C)C the result was Leishmania in macrophages: -73.81%.
For COCCn1cc2c(n1)C(CNCc1nccs1)OCC2 (stereo not shown) the result was CoaBC: -4.444%; LiHisRS: 9.722%.

Measurements from “University of Dundee, Small-Polar-MMV Screening Library” (2021), ChEMBL document CHEMBL3988442.